# From PubChem BioAssay AID2294 (Broad Institute, 2010)
# Some of the results follow. Results with a measured potency or affinity are listed apart. Where no call is shown, the source marks the result inconclusive.
# Test: T. cruzi infection blockers in NIH3T3 host cells, beta-gal luminescent readout, 384-well primary screen (AID 2294)
# Conditions: T. cruzi beta-gal in NIH3T3, luminescence, 90 h; at 1 µM (top of the series)
smiles,measurement,value
Cc1cc2cc(CN3C(=O)c4ccccc4C3=O)ccc2n1C,"activity change, negative = inhibition",47%
